Values joined by “and” are separate entries in the source; they are usually repeats but may differ in a detail not shown here. Identical values can stand only once.
Assay: labelling of the chelating agents with [AlF-18]2+ (radiolabelling efficiency/yield)

Compound | radiolabelling efficiency (37° C., pH 5) | radiolabelling efficiency (pH 5, ambient temperature) | radiolabelling yield (pH 6) | radiolabelling yield (pH 6.5)
O=C(O)CN(CC(=O)O)CC1CCCCN1CC(=O)O (stereo not shown) [2-AMPTA] | 75% | 79% |  | 
O=C(O)CN(Cc1ccccc1O)CC1CCCCN1CC(=O)O (stereo not shown) [2-AMPDA-HB] | 60% and 68% | 54% | 65% | 43.5%
O=C(O)CN(CC(=O)O)CC1CCCCN1Cc1cc([N+](=O)[O-])ccc1O (stereo not shown) [2-AMPDA-NHB] |  | 69% |  | 
